Test results from the supplement of paper PMC3334620.
The full ranking holds about 33,000 sequences; the median of “E-score (-0.5 to 0.5)” is about -0.0034, and the highest 2% start at about 0.25. This is one part of the list.

Each sequence was assayed against T1, Yap3 (UniProt P38749) (assay: PBM E-score (8-mer binding enrichment) (E-score (-0.5 to 0.5)); higher = stronger / more preferred TF binding). Conditions: protein concentration: 100 nM; construct: GST-full length.
T1 sequence: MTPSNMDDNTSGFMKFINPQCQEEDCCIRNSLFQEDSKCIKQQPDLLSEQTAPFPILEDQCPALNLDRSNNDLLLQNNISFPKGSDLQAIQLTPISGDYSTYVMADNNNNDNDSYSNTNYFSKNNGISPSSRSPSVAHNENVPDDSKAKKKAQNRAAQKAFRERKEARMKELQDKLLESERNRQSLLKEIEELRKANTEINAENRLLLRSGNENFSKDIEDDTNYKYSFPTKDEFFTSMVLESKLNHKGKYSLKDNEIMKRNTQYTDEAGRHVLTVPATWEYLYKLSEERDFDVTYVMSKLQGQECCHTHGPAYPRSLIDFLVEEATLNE
How it was run: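 The E-score, a modified Wilcoxon-Mann-Whitney statistic, was computed by the Universal PBM Analysis Suite for every ungapped eight-base word pooled with its reverse complement. Scans behind it were normalised with masliner after bound GST-tagged yeast transcription factors were detected with fluorescent anti-GST. The proteins, at about 100-200 nM, had been applied to universal all-10-mer Agilent arrays made double-stranded by primer extension.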

Sequence | PBM E-score
GCCGAACA | 0.0458
CCAACTAG | -0.0451
TTCAACAA | 0.0699
TGCTGTAA | -0.0361
AACCTGAA | -0.188
CATGGCAA | 0.0727
GACATTAC | 0.0986
AGGCCGAA | -0.192
GGCGATAA | 0.0308
CACATCCC | -0.125
ATGATGAA | 0.253
AGAAGCAG | 0.0729
CATAGTGG | 0.109
TATCGCGA | 0.19
ACCAACTG | 0.0875
AGATCGTC | -0.134
AGCCGTGG | -0.196
CTCTGGTA | 0.0338
ACAAGGTG | 0.0744
GACGAGGA | -0.0396
ATTTACGG | 0.234
GATACAAC | 0.114
CTTGCATA | 0.0986
AGCAGATA | -0.0697
ATTTTGAA | 0.132

Sequence | PBM E-score
GACTCAAC | -0.0307
CACCGTCG | -0.227
TGCATGAA | 0.14
CCACTAAC | 0.00404
CCATTTAC | 0.108
ATTTAGCC | 0.0798
ACTGAGGA | -0.158
AAGGGATT | 0.0279
ACCCAGCG | -0.152
ACCACTAT | 0.14
AAAGAGGT | 0.0767
GTCCAGAA | 0.00245
GAGATGGC | 0.133
AAAATGGC | 0.142
GTCCCTGA | -0.193
AGGTGGGG | -0.0201
CGTCACCC | -0.098
CATAGCGA | -0.056
CACTTTCG | 0.126
CACAGTTC | 0.0371
CTAGGAAA | 0.0848
TCTTACCA | -0.177
TGCATTAA | 0.172
CAAGTAGA | -0.0688
AGGGACGA | -0.128

Sequence | PBM E-score
CCGGCAAC | -0.163
GCGGCGGA | -0.0733
CCGTCCCG | -0.302
ATGACTGG | -0.204
GAGCTATC | -0.163
CCTTATGC | 0.0994
AGTCGAGG | -0.0873
TAATAGAA | 0.257
CCTTGGGA | -0.218
ACTTACCA | 0.0639
CGGGCTAA | -0.145
ACCCCGAC | -0.215
AGCCTGGA | -0.0679
AGGGCTAG | -0.178
ACTATCCT | 0.0365
AATCCCTA | 0.0362
AAAGTCCA | -0.0709
GAACGAAC | 0.059
GTAGACTA | -0.214
ATATAGAA | 0.227
CTCAACTA | 0.0192
AGACAGAC | 0.197
AGGGTCAG | -0.376
GCCTCAAC | -0.0901
TAATGCCA | 0.114

Fetched one by one from above (7):
Sequence | PBM E-score
GAACGAAC | 0.059
AGGGTCAG | -0.376
TAATAGAA | 0.257
CCGTCCCG | -0.302
CCTTATGC | 0.0994
AGCCTGGA | -0.0679
AGTCGAGG | -0.0873

(further entries)

Sequence | PBM E-score
ACTTCCTG | 0.0919
CGATGCAG | -0.124
GAATCAAA | 0.0372
ATACTTAC | 0.0503
TCTATCCA | 0.0392
TAGACACA | -0.0965
AGTTGTCA | 0.122
ACTTATCA | 0.0773
ATAAGGGG | -0.00492
AGGTGTTC | 0.0558
CCTACCGC | -0.241
AGCTATTG | -0.0447
CAGGGGGG | -0.5
GCGATATA | 0.155
AAGAAGAA | 0.127
CAGAGGGA | -0.221
AGTCGTTG | -0.13
ATACGCGC | -0.0134
CGGAACAC | 0.0384
ATGTCGCA | 0.149
CCACGCTA | -0.104
CAGTGTCA | -0.0211
TACATAGA | 0.134
AGCCTCCG | -0.189
CTCTACGA | -0.0546

Sequence | PBM E-score
GCAACCGC | -0.0795
ATGGAAAG | 0.136
ACGCAAGA | 0.124
AAGTCATA | 0.111
GATACTAA | 0.112
GATTGGAA | 0.0179
AACCGGCG | 0.101
AGAGGGGA | -0.262
GTCTCACA | 0.107
CCGTTTCA | 0.0876
ACAGGTTG | 0.0356
AACTTTGA | 0.0683
ACCCGTCG | -0.251
AGGAAAGA | 0.0841
AGCACTCG | -0.198
CGCATCTC | -0.0873
AGTCCTGG | -0.289
CCATCCTC | -0.158
CAAAGATG | 0.0268
TCCTCGCA | -0.169
CGCAGAAC | 0.102
CTGCTGCA | -0.0208
CATTTCGG | -0.0177
GACCCATC | -0.284
GAAACACA | 0.102

Sequence | PBM E-score
CGCGGAAA | 0.0224
CAGCGACA | -0.147
ACGGATAA | 0.189
CCACTTCC | 0.0421
ATCAAGAC | -0.00507
AGTTTGAC | 0.105
CCCTGTAA | 0.0624
CTAGTTGA | 0.209
CCTCGTCA | 0.19
ACTCAGTG | -0.231
AATTAGAG | 0.145
AAAAAGCT | -0.0767
CTCACTAC | 0.0454
ATATATGG | 0.259
ACCATATC | 0.0587
AGGTTAAA | 0.0393
ACACAGAC | -0.00753
CGAGGGCG | -0.279
AGTACATA | 0.0785
GCAGTTCC | -0.195
ATTCTCAA | 0.224
CAGCTTGA | 0.0312
AGTCTAAG | 0.127
CGCTCCCC | -0.385
TCCTCAAA | -0.0561

Sequence | PBM E-score
AAATGCTA | 0.0794
AACGGGCA | -0.0363
AGAATATA | 0.14
AATGCATC | 0.0492
GGCCGACC | -0.217
TATGCAAA | -0.0403
AGGGTAAT | 0.0724
ACGATTCA | -0.12
CTTACGCA | 0.172
AATACGTC | 0.188
CACTGGCA | -0.0333
CGGAGGCC | -0.345
CTATTGAA | 0.0827
CCAGCTCG | -0.0962
TCATACAA | 0.246
ATATTCTG | 0.164
ACTTGTCC | 0.0688
ATTAGCGA | 0.107
ATTACATC | 0.154
CTAAGGTA | 0.0717
AGACTACA | 0.00993
AATCGTCT | 0.00963
